Results: article doi:10.1101/2025.03.06.641037
These are yes or no findings as the source states them, for the method shown. In cells and extracts the contact can be indirect. Some entries that bind do so weakly or less than the wild type. Tags and fused reporters may be left off the sequences shown.

Amino acid sequences for entries named in this document (tags omitted).
UniProt P78347: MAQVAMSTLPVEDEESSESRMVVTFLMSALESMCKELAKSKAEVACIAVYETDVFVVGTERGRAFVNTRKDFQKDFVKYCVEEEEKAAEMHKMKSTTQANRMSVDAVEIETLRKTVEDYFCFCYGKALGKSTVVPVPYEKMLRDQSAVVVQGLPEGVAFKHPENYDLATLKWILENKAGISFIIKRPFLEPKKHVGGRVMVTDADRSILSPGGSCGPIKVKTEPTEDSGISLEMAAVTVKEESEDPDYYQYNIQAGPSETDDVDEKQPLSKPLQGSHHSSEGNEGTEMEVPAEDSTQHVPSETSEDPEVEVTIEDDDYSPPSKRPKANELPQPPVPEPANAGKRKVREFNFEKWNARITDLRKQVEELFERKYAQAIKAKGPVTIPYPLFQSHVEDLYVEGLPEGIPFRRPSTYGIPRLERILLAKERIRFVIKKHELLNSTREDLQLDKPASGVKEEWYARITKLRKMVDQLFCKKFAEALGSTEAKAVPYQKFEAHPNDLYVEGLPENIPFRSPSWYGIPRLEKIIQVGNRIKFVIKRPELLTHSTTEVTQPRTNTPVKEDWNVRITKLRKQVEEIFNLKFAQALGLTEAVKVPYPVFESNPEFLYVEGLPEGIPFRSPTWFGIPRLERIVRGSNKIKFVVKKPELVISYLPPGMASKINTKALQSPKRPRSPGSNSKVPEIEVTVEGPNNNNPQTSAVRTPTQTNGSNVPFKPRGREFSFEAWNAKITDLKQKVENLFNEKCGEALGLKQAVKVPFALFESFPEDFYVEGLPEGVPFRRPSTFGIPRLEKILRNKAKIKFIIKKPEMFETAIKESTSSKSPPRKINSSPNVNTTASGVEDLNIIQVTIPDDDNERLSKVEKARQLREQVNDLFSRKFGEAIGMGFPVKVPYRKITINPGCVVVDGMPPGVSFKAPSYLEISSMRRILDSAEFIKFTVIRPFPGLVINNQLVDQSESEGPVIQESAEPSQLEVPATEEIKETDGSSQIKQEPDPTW

Molecular target: GTF2I (human (endogenous in H9-derived hNSCs)) (UniProt P78347)
Assay: co-IP

B1: F2V5-ADNP (Activity-Dependent Neuroprotective Protein, endogenously tagged) (protein, UniProt Q9H2P0 1-1102)
chain: MFQLPVNNLGSLRKARKTVKKILSDIGLEYCKEHIEDFKQFEPNDFYLKNTTWEDVGLWDPSLTKNQDYRTKPFCCSACPFSSKFFSAYKSHFRNVHSEDFENRILLNCPYCTFNADKKTLETHIKIFHAPNASAPSSSLSTFKDKNKNDGLKPKQADSVEQAVYYCKKCTYRDPLYEIVRKHIYREHFQHVAAPYIAKAGEKSLNGAVPLGSNAREESSIHCKRCLFMPKSYEALVQHVIEDHERIGYQVTAMIGHTNVVVPRSKPLMLIAPKPQDKKSMGLPPRIGSLASGNVRSLPSQQMVNRLSIPKPNLNSTGVNMMSSVHLQQNNYGVKSVGQGYSVGQSMRLGLGGNAPVSIPQQSQSVKQLLPSGNGRSYGLGSEQRSQAPARYSLQSANASSLSSGQLKSPSLSQSQASRVLGQSSSKPAAAATGPPPGNTSSTQKWKICTICNELFPENVYSVHFEKEHKAEKVPAVANYIMKIHNFTSKCLYCNRYLPTDTLLNHMLIHGLSCPYCRSTFNDVEKMAAHMRMVHIDEEMGPKTDSTLSFDLTLQQGSHTNIHLLVTTYNLRDAPAESVAYHAQNNPPVPPKPQPKVQEKADIPVKSSPQAAVPYKKDVGKTLCPLCFSILKGPISDALAHHLRERHQVIQTVHPVEKKLTYKCIHCLGVYTSNMTASTITLHLVHCRGVGKTQNGQDKTNAPSRLNQSPSLAPVKRTYEQMEFPLLKKRKLDDDSDSPSFFEEKPEEPVVLALDPKGHEDDSYEARKSFLTKYFNKQPYPTRREIEKLAASLWLWKSDIASHFSNKRKKCVRDCEKYKPGVLLGFNMKELNKVKHEMDFDAEWLFENHDEKDSRVNASKTADKKLNLGKEDDSSSDSFENLEEESNESGSPFDPVFEVEPKISNDNPEEHVLKVIPEDASESEEKLDQKEDGSKYETIHLTEEPTKLMHNASDSEVDQDDVVEWKDGASPSESGPGSQQVSDFEDNTCEMKPGTWSDESSQSEDARSSKPAAKKKATMQGDREQLKWKNSSYGKVEGFWSKDQSQWKNASENDERLSNPQIEWQNSTIDSEDGEQFDNMTDGVAEPMHGSLAGVKLSSQQA
binding: binds
